This assay has as its target T1, ParB (Caulobacter crescentus) (UniProt B8GW30).
T1 sequence: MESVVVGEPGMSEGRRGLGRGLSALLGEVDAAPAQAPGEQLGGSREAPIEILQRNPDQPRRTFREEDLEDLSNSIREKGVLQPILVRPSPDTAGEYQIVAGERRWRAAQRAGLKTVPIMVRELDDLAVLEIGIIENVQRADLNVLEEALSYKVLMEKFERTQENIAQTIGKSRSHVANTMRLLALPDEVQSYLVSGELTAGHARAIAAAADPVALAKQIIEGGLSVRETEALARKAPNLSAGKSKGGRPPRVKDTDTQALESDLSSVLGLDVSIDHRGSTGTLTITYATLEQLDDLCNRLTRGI
Put plainly: two-hybrid; yeast two-hybrid; β-galactosidase activity assayed for each strain, presented relative to the ParB-ParA^WT value; four biological replicates.

Consider 2 molecules from paper PMC5583512.

No constants are given. Whether binding was seen depends on the method and setting. Some results given as binding are weak or reduced against the parent protein; the word gives no strength.

B1: ParA(K20R) (protein, UniProt B8GW31 1-267)
chain: MSANPLRVLAIANQKGGVGRTTTAINLGTALAACGERVLLIDADPQGNCSTGLGIGRTQRRTTLYDVLMGEAPVVDAAVKTELPGLDVIPADADLSGVEIELGQTARRSYRLRDALEAIRANGPYTYVLIDCPPSLNVLTVNAMTAADAVFVPLQCEFFALEGLTQLMRTIERVRGSLNPRLEIQGVVLTMYDRRNSLSEQVAKDVRAHFGDKVYDAVIPRNVRVSEAPSFGKPVLLYDLKCAGSQAYLKLAREVISRERDRQAKAA
Consider B1, for which the binding entry is recorded as “binds”.

B2: ParA (WT) (protein, UniProt B8GW31 1-267)
chain: MSANPLRVLAIANQKGGVGKTTTAINLGTALAACGERVLLIDADPQGNCSTGLGIGRTQRRTTLYDVLMGEAPVVDAAVKTELPGLDVIPADADLSGVEIELGQTARRSYRLRDALEAIRANGPYTYVLIDCPPSLNVLTVNAMTAADAVFVPLQCEFFALEGLTQLMRTIERVRGSLNPRLEIQGVVLTMYDRRNSLSEQVAKDVRAHFGDKVYDAVIPRNVRVSEAPSFGKPVLLYDLKCAGSQAYLKLAREVISRERDRQAKAA
Turning to B2, the binding entry was “binds”.
